Reference: the supplement of paper PMC6411743
± gives the standard deviation of the averaged measurements. Only a part is listed here, and it is no random draw. Most entries show no effect beyond the scatter of the controls.

Sequences of proteins named here, by UniProt entry; tags and fusion partners are left off. A change or cut given only in a name is not applied to a line headed by its entry.
UniProt P25685, whole entry: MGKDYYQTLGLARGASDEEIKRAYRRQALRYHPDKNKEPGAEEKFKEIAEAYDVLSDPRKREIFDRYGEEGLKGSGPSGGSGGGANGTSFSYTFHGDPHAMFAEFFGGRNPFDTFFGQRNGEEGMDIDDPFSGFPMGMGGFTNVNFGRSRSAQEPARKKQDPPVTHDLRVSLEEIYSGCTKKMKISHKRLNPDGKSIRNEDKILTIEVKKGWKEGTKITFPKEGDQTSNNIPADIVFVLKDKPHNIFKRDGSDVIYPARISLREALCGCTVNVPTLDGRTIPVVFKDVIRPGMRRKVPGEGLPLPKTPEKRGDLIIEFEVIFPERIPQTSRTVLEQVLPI
UniProt P24534: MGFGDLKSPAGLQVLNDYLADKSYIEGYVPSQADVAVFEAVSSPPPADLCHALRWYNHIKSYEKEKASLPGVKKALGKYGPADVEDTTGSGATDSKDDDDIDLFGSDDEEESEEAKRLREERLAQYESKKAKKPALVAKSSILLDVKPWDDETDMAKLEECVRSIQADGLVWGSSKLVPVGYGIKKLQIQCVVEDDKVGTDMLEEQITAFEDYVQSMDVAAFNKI
UniProt P21964: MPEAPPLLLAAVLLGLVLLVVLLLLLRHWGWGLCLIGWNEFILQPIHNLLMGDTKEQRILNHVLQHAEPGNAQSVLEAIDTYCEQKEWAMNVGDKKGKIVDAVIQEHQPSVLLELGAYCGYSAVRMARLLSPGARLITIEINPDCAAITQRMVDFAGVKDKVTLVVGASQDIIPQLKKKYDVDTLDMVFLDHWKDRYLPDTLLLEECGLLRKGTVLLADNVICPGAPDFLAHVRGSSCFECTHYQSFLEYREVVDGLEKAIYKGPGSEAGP
UniProt P18754: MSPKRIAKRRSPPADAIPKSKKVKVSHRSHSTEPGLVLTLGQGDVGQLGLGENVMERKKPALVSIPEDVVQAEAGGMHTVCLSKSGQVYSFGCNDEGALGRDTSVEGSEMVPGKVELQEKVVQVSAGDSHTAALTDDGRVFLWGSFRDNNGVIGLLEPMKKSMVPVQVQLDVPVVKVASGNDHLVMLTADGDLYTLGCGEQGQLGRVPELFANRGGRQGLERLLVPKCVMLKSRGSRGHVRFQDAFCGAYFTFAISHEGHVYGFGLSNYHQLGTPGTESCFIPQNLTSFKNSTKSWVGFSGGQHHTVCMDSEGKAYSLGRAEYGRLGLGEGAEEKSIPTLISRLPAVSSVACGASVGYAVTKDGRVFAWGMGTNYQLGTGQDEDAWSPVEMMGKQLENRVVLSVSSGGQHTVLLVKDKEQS
UniProt P19784, whole entry, looked up: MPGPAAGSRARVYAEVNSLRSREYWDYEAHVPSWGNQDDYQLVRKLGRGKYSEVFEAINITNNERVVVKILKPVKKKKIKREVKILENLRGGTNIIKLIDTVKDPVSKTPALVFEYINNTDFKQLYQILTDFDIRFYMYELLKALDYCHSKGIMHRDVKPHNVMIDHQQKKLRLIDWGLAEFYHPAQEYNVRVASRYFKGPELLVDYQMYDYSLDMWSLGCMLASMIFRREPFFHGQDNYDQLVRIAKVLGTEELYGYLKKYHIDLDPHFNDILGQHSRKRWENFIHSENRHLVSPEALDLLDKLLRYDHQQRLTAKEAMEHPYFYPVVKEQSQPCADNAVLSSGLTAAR
UniProt P17098: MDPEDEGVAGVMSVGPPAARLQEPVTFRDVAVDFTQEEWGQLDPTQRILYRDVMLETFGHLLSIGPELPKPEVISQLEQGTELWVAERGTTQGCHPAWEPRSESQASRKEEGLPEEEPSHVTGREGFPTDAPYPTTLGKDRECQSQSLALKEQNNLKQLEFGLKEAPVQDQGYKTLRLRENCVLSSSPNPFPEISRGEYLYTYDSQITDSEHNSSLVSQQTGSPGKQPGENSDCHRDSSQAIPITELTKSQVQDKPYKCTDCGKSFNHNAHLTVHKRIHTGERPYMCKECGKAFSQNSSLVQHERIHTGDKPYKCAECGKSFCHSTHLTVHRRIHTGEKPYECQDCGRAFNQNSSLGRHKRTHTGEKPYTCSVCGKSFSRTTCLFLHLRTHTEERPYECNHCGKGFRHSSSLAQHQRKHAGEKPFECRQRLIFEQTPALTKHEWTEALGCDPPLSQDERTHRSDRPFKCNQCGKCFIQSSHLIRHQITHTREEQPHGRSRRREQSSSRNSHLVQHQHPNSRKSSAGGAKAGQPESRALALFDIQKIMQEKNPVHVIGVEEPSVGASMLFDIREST
UniProt P23284: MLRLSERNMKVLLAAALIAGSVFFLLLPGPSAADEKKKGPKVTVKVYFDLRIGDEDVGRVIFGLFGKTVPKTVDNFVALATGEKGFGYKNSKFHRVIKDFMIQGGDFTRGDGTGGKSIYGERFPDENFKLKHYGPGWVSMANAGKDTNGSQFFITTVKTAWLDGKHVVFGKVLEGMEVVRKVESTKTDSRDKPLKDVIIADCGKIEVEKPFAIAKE
UniProt P23229: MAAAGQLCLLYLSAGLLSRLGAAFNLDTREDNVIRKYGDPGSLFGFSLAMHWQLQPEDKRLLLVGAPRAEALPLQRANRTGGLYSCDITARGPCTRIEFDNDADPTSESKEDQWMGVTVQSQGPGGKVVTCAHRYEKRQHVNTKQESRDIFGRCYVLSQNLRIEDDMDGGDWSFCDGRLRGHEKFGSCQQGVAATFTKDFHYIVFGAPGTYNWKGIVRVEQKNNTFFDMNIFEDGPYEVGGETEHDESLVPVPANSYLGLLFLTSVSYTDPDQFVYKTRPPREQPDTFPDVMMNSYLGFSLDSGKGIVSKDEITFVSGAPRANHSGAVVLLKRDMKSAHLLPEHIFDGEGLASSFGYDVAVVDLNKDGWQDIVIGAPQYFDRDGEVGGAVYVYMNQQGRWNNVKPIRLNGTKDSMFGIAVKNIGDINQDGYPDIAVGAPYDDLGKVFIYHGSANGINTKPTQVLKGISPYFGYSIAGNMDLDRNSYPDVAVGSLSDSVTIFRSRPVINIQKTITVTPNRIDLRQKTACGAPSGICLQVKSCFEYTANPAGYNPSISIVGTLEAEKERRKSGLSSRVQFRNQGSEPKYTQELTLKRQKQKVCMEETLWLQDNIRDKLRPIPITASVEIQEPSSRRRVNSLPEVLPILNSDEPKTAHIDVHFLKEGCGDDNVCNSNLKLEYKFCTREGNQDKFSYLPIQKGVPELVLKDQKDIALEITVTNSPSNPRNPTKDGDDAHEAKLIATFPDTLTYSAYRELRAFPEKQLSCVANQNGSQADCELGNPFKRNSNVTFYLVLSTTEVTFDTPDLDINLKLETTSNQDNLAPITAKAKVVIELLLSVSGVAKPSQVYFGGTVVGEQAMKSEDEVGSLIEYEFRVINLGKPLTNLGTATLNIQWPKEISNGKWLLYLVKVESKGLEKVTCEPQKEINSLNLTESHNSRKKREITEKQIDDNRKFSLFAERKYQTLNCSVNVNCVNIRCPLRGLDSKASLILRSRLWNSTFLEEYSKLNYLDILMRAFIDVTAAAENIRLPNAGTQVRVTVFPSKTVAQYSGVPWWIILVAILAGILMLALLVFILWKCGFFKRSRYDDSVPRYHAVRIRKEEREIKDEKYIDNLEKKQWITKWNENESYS
UniProt P27540, whole entry: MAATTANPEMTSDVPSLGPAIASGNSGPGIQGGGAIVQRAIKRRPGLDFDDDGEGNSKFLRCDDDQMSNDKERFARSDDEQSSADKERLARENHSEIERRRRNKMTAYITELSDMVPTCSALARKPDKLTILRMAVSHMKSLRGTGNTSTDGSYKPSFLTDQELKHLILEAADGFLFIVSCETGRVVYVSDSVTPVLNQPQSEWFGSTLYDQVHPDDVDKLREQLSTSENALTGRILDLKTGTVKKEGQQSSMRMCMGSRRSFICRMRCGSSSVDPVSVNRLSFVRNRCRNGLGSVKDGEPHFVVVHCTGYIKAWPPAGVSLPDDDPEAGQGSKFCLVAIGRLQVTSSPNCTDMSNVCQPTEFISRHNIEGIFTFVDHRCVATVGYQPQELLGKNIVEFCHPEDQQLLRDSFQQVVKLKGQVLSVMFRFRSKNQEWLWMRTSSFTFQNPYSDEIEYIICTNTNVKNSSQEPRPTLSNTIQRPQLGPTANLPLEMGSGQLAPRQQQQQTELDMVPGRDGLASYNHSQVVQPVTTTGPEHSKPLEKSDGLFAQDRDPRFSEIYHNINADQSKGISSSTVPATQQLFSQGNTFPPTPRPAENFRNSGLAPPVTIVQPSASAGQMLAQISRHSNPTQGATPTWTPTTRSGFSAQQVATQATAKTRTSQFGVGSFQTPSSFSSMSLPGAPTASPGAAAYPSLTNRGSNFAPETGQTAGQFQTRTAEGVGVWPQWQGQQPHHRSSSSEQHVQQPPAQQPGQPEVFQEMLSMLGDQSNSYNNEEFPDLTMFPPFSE
UniProt P19440: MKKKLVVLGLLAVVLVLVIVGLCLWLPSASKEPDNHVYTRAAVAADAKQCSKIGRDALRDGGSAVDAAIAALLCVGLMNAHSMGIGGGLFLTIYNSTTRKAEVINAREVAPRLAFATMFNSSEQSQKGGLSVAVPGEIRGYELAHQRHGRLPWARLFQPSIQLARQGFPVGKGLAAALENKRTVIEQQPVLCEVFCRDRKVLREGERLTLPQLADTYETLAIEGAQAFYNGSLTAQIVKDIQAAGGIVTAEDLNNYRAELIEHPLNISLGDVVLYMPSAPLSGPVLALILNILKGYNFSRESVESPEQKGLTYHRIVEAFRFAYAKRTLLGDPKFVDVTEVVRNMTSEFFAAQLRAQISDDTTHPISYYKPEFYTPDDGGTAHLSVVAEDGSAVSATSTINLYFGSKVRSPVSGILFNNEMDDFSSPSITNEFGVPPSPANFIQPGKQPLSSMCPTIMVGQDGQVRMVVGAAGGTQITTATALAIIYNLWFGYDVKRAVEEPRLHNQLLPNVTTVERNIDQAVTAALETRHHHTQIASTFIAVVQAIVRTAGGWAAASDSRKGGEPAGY
UniProt P22695: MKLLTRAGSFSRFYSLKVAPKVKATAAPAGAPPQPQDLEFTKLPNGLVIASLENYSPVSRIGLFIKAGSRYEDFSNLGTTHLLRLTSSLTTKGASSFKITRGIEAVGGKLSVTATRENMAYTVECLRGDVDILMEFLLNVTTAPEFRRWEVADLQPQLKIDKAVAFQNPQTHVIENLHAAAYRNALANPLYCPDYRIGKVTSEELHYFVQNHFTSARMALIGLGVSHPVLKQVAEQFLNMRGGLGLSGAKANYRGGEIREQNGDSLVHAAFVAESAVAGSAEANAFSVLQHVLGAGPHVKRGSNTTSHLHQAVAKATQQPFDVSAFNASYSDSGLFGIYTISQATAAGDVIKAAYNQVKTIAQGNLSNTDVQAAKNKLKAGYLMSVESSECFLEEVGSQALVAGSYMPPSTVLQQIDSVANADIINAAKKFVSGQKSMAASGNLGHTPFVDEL
UniProt P35249, whole entry: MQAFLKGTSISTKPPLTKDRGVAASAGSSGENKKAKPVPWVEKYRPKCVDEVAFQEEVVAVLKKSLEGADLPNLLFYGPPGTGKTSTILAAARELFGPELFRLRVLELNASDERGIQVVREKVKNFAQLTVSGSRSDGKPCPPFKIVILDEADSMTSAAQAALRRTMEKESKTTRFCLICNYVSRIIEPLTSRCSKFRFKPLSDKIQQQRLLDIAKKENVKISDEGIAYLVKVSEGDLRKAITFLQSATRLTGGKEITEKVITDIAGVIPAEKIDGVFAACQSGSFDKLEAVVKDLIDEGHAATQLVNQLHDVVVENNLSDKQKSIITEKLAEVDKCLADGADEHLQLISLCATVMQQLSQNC
UniProt P19474, whole entry: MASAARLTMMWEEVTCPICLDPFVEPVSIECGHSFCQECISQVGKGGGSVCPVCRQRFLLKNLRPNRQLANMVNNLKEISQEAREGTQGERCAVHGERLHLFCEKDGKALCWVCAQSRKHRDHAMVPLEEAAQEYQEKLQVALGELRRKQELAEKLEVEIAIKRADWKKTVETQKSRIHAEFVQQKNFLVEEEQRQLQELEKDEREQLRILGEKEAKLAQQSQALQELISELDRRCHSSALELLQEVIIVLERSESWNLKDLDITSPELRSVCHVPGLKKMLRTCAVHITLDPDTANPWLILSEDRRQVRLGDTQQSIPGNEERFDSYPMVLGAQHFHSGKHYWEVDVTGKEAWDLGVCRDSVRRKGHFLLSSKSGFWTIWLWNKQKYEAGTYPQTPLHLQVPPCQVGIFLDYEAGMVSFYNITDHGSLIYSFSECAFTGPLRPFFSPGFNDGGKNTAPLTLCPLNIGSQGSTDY
UniProt P16930: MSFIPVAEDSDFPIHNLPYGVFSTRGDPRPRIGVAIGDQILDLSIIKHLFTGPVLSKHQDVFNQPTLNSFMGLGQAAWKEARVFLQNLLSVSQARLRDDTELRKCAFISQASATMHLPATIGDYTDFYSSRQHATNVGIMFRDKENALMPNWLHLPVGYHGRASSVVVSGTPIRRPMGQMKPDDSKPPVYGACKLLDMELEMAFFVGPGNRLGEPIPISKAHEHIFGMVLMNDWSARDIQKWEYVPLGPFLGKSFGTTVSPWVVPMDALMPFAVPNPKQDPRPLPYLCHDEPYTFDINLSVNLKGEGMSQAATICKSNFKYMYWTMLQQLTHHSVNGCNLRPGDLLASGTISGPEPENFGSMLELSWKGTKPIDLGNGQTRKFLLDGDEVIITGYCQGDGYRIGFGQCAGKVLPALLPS

Compound: Nc1ncnc2c1ncn2[C@@H]1O[C@H](COP(=O)(O)OP(=O)(O)OP(=O)(O)O)[C@@H](O)[C@H]1O [adenosine triphosphate]
Experiment: NP40-soluble protein abundance relative to vehicle (solubility fold change) (ratio); higher = more soluble protein in presence of ATP
Conditions: concentration: 0.1mM
How it was run: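 Eight concentrations, 0.1 to 10 mM, were tested on Jurkat crude lysate for 10 min at room temperature and then 3 min at 37 °C, in three independent experiments. The lysate was solubilised with 0.8% NP40 and benzonase, ultracentrifuged, and the supernatant TMT-labelled for LC-MS/MS. Each value is the fold change against the detergent-processed vehicle in its own replicate, from vsn-normalised intensities.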

For DNAJB1 (UniProt P25685), which NP40-soluble protein abundance is on record?
Its NP40-soluble protein abundance is 1.03 ± 0.077.

For EEF1B2 (UniProt P24534), which NP40-soluble protein abundance is on record?
Its NP40-soluble protein abundance is 0.78 ± 0.2.

With UniProt P21964 and related entries as the target, how does the NP40-soluble protein abundance read?
The NP40-soluble protein abundance was 1 ± 0.033.

For UniProt P28331 and related entries, which NP40-soluble protein abundance is on record?
Its NP40-soluble protein abundance is 0.991 ± 0.04.

PSMB9 (UniProt P28065) was tested. Which NP40-soluble protein abundance did it give?
The NP40-soluble protein abundance was 0.99 ± 0.024.

How did the NP40-soluble protein abundance turn out when UniProt P18754 and related entries was run?
Its NP40-soluble protein abundance is 1.02 ± 0.026.

With UniProt P33121 and related entries as the target, how does the NP40-soluble protein abundance read?
Its NP40-soluble protein abundance is 1.08 ± 0.066.

How did the NP40-soluble protein abundance turn out when UniProt P19784 was run?
The NP40-soluble protein abundance was 1.05 ± 0.072.

For UniProt P25098, which NP40-soluble protein abundance is on record?
The NP40-soluble protein abundance was 1.03 ± 0.052.

Which NP40-soluble protein abundance does the source give for PRDX6 (UniProt P30041) here?
The NP40-soluble protein abundance was 0.983 ± 0.019.

How did the NP40-soluble protein abundance turn out when ITPKB (UniProt P27987) was run?
The NP40-soluble protein abundance was 0.921 ± 0.028.

UniProt P22001 was tested. Which NP40-soluble protein abundance did it give?
Its NP40-soluble protein abundance is 0.901 ± 0.067.

ZNF8 (UniProt P17098) was tested. Which NP40-soluble protein abundance did it give?
Its NP40-soluble protein abundance is 1.03 ± 0.045.

RPL12 (UniProt P30050) was tested. Which NP40-soluble protein abundance did it give?
Its NP40-soluble protein abundance is 0.913 ± 0.069.

For CCND3 (UniProt P30281), which NP40-soluble protein abundance is on record?
The NP40-soluble protein abundance was 0.941 ± 0.016.

Which NP40-soluble protein abundance does the source give for UniProt P30622-1|P30622-2 here?
Its NP40-soluble protein abundance is 0.996 ± 0.024.

With UniProt P17096 and related entries as the target, how does the NP40-soluble protein abundance read?
The NP40-soluble protein abundance was 0.941 ± 0.17.

PPIB (UniProt P23284) was tested. Which NP40-soluble protein abundance did it give?
The NP40-soluble protein abundance was 0.966 ± 0.015.

How did the NP40-soluble protein abundance turn out when UniProt P16989 and related entries was run?
Its NP40-soluble protein abundance is 0.934 ± 0.057.

For UniProt P23229 and related entries, which NP40-soluble protein abundance is on record?
The NP40-soluble protein abundance was 0.967 ± 0.043.

Which NP40-soluble protein abundance does the source give for UniProt P27540 and related entries here?
The NP40-soluble protein abundance was 1.02 ± 0.017.

UniProt P28066 was tested. Which NP40-soluble protein abundance did it give?
Its NP40-soluble protein abundance is 0.994 ± 0.022.

M6PR (UniProt P20645) was tested. Which NP40-soluble protein abundance did it give?
Its NP40-soluble protein abundance is 0.982 ± 0.014.

GDI1 (UniProt P31150) was tested. Which NP40-soluble protein abundance did it give?
The NP40-soluble protein abundance was 1.05 ± 0.088.

Which NP40-soluble protein abundance does the source give for GGT1 (UniProt P19440) here?
The NP40-soluble protein abundance was 0.9 ± 0.08.

With UQCRC2 (UniProt P22695) as the target, how does the NP40-soluble protein abundance read?
Its NP40-soluble protein abundance is 0.987 ± 0.032.

For RFC4 (UniProt P35249), which NP40-soluble protein abundance is on record?
The NP40-soluble protein abundance was 1.05 ± 0.046.

How did the NP40-soluble protein abundance turn out when UniProt P20810-10|P20810-6 was run?
The NP40-soluble protein abundance was 0.954 ± 0.023.

How did the NP40-soluble protein abundance turn out when UniProt P26358 and related entries was run?
Its NP40-soluble protein abundance is 1.03 ± 0.039.

For UniProt P17706 and related entries, which NP40-soluble protein abundance is on record?
Its NP40-soluble protein abundance is 0.991 ± 0.093.

UniProt P35613 and related entries was tested. Which NP40-soluble protein abundance did it give?
Its NP40-soluble protein abundance is 0.943 ± 0.028.

FKBP2 (UniProt P26885) was tested. Which NP40-soluble protein abundance did it give?
Its NP40-soluble protein abundance is 0.927 ± 0.018.

Which NP40-soluble protein abundance does the source give for KIF5B (UniProt P33176) here?
Its NP40-soluble protein abundance is 0.998 ± 0.023.

For UniProt P17480 and related entries, which NP40-soluble protein abundance is on record?
Its NP40-soluble protein abundance is 1.024 ± 0.0093.

How did the NP40-soluble protein abundance turn out when CORO1A (UniProt P31146) was run?
Its NP40-soluble protein abundance is 0.999 ± 0.034.

With TRIM21 (UniProt P19474) as the target, how does the NP40-soluble protein abundance read?
The NP40-soluble protein abundance was 1.04 ± 0.057.

Which NP40-soluble protein abundance does the source give for FAH (UniProt P16930) here?
Its NP40-soluble protein abundance is 1.01 ± 0.071.

Same assay, conditions: concentration: 0.5mM

For DNAJB1 (UniProt P25685), which NP40-soluble protein abundance is on record?
The NP40-soluble protein abundance was 1.04 ± 0.074.

Which NP40-soluble protein abundance does the source give for EEF1B2 (UniProt P24534) here?
Its NP40-soluble protein abundance is 0.762 ± 0.21.

For UniProt P21964 and related entries, which NP40-soluble protein abundance is on record?
The NP40-soluble protein abundance was 1.03 ± 0.047.

UniProt P28331 and related entries was tested. Which NP40-soluble protein abundance did it give?
The NP40-soluble protein abundance was 1 ± 0.048.

For PSMB9 (UniProt P28065), which NP40-soluble protein abundance is on record?
Its NP40-soluble protein abundance is 0.963 ± 0.055.

For UniProt P18754 and related entries, which NP40-soluble protein abundance is on record?
The NP40-soluble protein abundance was 1.04 ± 0.035.

Which NP40-soluble protein abundance does the source give for UniProt P33121 and related entries here?
Its NP40-soluble protein abundance is 1.06 ± 0.096.

For UniProt P19784, which NP40-soluble protein abundance is on record?
Its NP40-soluble protein abundance is 1.01 ± 0.049.

With UniProt P25098 as the target, how does the NP40-soluble protein abundance read?
Its NP40-soluble protein abundance is 1.01 ± 0.039.

How did the NP40-soluble protein abundance turn out when PRDX6 (UniProt P30041) was run?
The NP40-soluble protein abundance was 0.944 ± 0.079.

With ITPKB (UniProt P27987) as the target, how does the NP40-soluble protein abundance read?
Its NP40-soluble protein abundance is 0.924 ± 0.16.

How did the NP40-soluble protein abundance turn out when UniProt P22001 was run?
The NP40-soluble protein abundance was 0.912 ± 0.092.

How did the NP40-soluble protein abundance turn out when ZNF8 (UniProt P17098) was run?
Its NP40-soluble protein abundance is 1.01 ± 0.066.

For RPL12 (UniProt P30050), which NP40-soluble protein abundance is on record?
Its NP40-soluble protein abundance is 0.916 ± 0.086.

How did the NP40-soluble protein abundance turn out when CCND3 (UniProt P30281) was run?
Its NP40-soluble protein abundance is 0.912 ± 0.01.

How did the NP40-soluble protein abundance turn out when UniProt P30622-1|P30622-2 was run?
Its NP40-soluble protein abundance is 1.02 ± 0.05.

With UniProt P17096 and related entries as the target, how does the NP40-soluble protein abundance read?
The NP40-soluble protein abundance was 1.01 ± 0.46.

Which NP40-soluble protein abundance does the source give for PPIB (UniProt P23284) here?
Its NP40-soluble protein abundance is 1.02 ± 0.04.

With UniProt P16989 and related entries as the target, how does the NP40-soluble protein abundance read?
Its NP40-soluble protein abundance is 0.938 ± 0.018.

Which NP40-soluble protein abundance does the source give for UniProt P23229 and related entries here?
The NP40-soluble protein abundance was 0.965 ± 0.024.

Which NP40-soluble protein abundance does the source give for UniProt P27540 and related entries here?
The NP40-soluble protein abundance was 0.998 ± 0.025.

Which NP40-soluble protein abundance does the source give for UniProt P28066 here?
The NP40-soluble protein abundance was 0.981 ± 0.012.

M6PR (UniProt P20645) was tested. Which NP40-soluble protein abundance did it give?
The NP40-soluble protein abundance was 0.911 ± 0.029.

GDI1 (UniProt P31150) was tested. Which NP40-soluble protein abundance did it give?
Its NP40-soluble protein abundance is 1.06 ± 0.064.

For GGT1 (UniProt P19440), which NP40-soluble protein abundance is on record?
Its NP40-soluble protein abundance is 0.886 ± 0.2.

For UQCRC2 (UniProt P22695), which NP40-soluble protein abundance is on record?
Its NP40-soluble protein abundance is 0.958 ± 0.025.

For RFC4 (UniProt P35249), which NP40-soluble protein abundance is on record?
Its NP40-soluble protein abundance is 1.14 ± 0.011.

How did the NP40-soluble protein abundance turn out when UniProt P20810-10|P20810-6 was run?
The NP40-soluble protein abundance was 0.939 ± 0.017.

UniProt P26358 and related entries was tested. Which NP40-soluble protein abundance did it give?
The NP40-soluble protein abundance was 1.03 ± 0.051.

How did the NP40-soluble protein abundance turn out when UniProt P17706 and related entries was run?
The NP40-soluble protein abundance was 0.995 ± 0.077.

How did the NP40-soluble protein abundance turn out when UniProt P35613 and related entries was run?
Its NP40-soluble protein abundance is 0.917 ± 0.061.

With FKBP2 (UniProt P26885) as the target, how does the NP40-soluble protein abundance read?
The NP40-soluble protein abundance was 0.92 ± 0.09.

KIF5B (UniProt P33176) was tested. Which NP40-soluble protein abundance did it give?
Its NP40-soluble protein abundance is 1.01 ± 0.065.

With UniProt P17480 and related entries as the target, how does the NP40-soluble protein abundance read?
The NP40-soluble protein abundance was 1.083 ± 0.0011.

For CORO1A (UniProt P31146), which NP40-soluble protein abundance is on record?
Its NP40-soluble protein abundance is 1.07 ± 0.061.

How did the NP40-soluble protein abundance turn out when TRIM21 (UniProt P19474) was run?
Its NP40-soluble protein abundance is 1.03 ± 0.053.

How did the NP40-soluble protein abundance turn out when FAH (UniProt P16930) was run?
Its NP40-soluble protein abundance is 1.02 ± 0.069.
